Assay results taken from paper PMC3414498.
Results are given in words; binding and its absence hold for the method and conditions named. In cells and extracts the contact can be indirect. Some binding calls cover weakened binding; strength is not graded here. Tags and fused reporters may be left off the sequences shown.

Amino acid sequences for entries named in this document (tags omitted). Residues count along the entry.
UniProt Q9UBV2, residues 22-794: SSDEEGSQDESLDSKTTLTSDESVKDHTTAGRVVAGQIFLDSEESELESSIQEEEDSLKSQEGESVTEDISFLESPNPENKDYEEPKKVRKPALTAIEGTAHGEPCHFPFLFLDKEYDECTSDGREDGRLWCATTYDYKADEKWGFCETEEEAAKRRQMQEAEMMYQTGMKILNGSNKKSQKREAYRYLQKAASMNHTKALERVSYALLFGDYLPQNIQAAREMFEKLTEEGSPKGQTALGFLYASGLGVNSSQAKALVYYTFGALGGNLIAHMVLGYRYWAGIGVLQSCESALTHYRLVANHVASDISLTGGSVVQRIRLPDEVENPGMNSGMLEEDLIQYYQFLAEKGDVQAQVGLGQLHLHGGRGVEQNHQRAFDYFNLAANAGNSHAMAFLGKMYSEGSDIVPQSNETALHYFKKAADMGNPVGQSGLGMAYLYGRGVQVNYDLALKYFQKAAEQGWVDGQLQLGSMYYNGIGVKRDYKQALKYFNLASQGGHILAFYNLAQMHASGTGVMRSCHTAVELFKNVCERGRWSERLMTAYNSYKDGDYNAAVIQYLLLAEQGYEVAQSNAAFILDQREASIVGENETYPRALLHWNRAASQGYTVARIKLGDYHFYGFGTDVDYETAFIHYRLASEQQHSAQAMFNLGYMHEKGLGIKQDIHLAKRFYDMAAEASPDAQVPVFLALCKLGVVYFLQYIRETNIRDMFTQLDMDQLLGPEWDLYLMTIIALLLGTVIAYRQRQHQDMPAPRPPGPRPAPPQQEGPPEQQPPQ

T1: EDEM1 wild type (mouse), HA-tagged (mouse) (UniProt Q925U4)
T1 sequence: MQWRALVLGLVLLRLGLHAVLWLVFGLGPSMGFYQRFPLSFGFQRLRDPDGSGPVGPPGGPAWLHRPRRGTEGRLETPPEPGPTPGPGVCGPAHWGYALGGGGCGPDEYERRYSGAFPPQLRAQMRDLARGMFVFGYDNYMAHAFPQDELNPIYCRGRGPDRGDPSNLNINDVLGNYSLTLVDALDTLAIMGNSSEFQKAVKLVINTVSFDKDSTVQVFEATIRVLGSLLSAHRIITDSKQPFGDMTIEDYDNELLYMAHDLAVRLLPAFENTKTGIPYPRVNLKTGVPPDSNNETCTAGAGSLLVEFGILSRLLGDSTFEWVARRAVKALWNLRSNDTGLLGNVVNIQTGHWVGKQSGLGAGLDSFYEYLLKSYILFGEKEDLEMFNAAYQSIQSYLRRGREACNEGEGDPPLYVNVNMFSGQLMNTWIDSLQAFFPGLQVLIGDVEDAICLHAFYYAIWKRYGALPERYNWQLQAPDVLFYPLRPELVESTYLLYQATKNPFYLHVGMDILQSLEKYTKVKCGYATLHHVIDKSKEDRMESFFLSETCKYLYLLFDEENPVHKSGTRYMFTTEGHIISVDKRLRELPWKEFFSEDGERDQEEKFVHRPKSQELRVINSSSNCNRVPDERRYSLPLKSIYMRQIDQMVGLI

T2: wild type tyrosinase (UniProt P14679)
T2 sequence: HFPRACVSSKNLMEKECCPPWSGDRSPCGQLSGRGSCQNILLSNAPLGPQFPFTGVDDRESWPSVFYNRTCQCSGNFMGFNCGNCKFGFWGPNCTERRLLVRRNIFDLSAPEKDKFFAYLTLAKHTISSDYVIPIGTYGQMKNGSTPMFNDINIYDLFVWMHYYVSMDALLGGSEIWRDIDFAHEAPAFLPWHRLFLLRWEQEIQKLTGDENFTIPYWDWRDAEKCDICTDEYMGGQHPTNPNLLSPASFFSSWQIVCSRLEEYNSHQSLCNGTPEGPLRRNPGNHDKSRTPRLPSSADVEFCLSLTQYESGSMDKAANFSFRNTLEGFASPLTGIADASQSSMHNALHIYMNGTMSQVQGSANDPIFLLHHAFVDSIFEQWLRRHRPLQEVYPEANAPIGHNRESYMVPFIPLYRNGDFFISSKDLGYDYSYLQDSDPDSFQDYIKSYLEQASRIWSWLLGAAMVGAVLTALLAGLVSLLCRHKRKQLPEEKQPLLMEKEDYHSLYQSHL

T3: calnexin (human (endogenous in HEK 293T)) (UniProt P27824)
T3 sequence: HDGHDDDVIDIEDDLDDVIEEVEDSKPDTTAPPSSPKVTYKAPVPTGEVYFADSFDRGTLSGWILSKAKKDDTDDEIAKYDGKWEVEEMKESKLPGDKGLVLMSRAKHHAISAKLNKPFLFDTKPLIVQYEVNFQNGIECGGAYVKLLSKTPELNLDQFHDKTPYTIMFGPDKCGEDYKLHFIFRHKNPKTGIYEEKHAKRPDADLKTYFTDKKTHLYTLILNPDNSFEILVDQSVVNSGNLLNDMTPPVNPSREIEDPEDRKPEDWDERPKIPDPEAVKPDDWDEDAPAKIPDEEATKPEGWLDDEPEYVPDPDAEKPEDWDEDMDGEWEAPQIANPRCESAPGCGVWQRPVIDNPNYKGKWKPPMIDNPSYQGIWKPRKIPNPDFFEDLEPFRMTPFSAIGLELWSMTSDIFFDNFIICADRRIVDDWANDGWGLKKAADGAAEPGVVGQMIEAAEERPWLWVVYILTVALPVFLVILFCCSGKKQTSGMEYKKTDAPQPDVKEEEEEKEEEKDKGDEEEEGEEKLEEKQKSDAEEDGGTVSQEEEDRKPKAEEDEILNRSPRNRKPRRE


Tests used:
[1] = target: T1, EDEM1 wild type (mouse), HA-tagged (mouse); experiment: co-IP; HEK 293T cells co-transfected with tyrosinase and EDEM1 constructs, [35S]-methionine/cysteine pulse 20 or 30 min, chase up to 2 h, lysed in 2% CHAPS, 50 mM Hepes, 200 mM NaCl, pH 7.5; immunoprecipitated with anti-tyrosinase (T311) or anti-EDEM1 (or HA) antibodies, 24 h at 4°C; SDS-PAGE and autoradiography
[2] = target: T2, wild type tyrosinase; experiment: as above
[3] = target: SEL1L (human (endogenous in HEK 293T)) (UniProt Q9UBV2); experiment: co-IP; HEK 293T cells overexpressing EDEM1 constructs, [35S] pulse-labelled and chased; endogenous calnexin or SEL1L immunoprecipitated with anti-calnexin or anti-SEL1L antibodies; SDS-PAGE and autoradiography
[4] = target: T3, calnexin (human (endogenous in HEK 293T)); experiment: as above

Row | binding [1] | binding [2] | binding [3] | binding [4] | Binder
1 | binds |  |  |  | wild type tyrosinase (protein, UniProt P14679 19-529) HFPRACVSSKNLMEKECCPPWSGDRSPCGQLSGRGSCQNILLSNAPLGPQFPFTGVDDRESWPSVFYNRTCQCSGNFMGFNCGNCKFGFWGPNCTERRLLVRRNIFDLSAPEKDKFFAYLTLAKHTISSDYVIPIGTYGQMKNGSTPMFNDINIYDLFVWMHYYVSMDALLGGSEIWRDIDFAHEAPAFLPWHRLFLLRWEQEIQKLTGDENFTIPYWDWRDAEKCDICTDEYMGGQHPTNPNLLSPASFFSSWQIVCSRLEEYNSHQSLCNGTPEGPLRRNPGNHDKSRTPRLPSSADVEFCLSLTQYESGSMDKAANFSFRNTLEGFASPLTGIADASQSSMHNALHIYMNGTMSQVQGSANDPIFLLHHAFVDSIFEQWLRRHRPLQEVYPEANAPIGHNRESYMVPFIPLYRNGDFFISSKDLGYDYSYLQDSDPDSFQDYIKSYLEQASRIWSWLLGAAMVGAVLTALLAGLVSLLCRHKRKQLPEEKQPLLMEKEDYHSLYQSHL
2 |  | binds weakly | binds | binds | EDEM1-ΔIDR (mouse EDEM1 lacking the ID region, amino acids 48-119), HA-tagged (protein, UniProt Q925U4) MQWRALVLGLVLLRLGLHAVLWLVFGLGPSMGFYQRFPLSFGFQRLRQLRAQMRDLARGMFVFGYDNYMAHAFPQDELNPIYCRGRGPDRGDPSNLNINDVLGNYSLTLVDALDTLAIMGNSSEFQKAVKLVINTVSFDKDSTVQVFEATIRVLGSLLSAHRIITDSKQPFGDMTIEDYDNELLYMAHDLAVRLLPAFENTKTGIPYPRVNLKTGVPPDSNNETCTAGAGSLLVEFGILSRLLGDSTFEWVARRAVKALWNLRSNDTGLLGNVVNIQTGHWVGKQSGLGAGLDSFYEYLLKSYILFGEKEDLEMFNAAYQSIQSYLRRGREACNEGEGDPPLYVNVNMFSGQLMNTWIDSLQAFFPGLQVLIGDVEDAICLHAFYYAIWKRYGALPERYNWQLQAPDVLFYPLRPELVESTYLLYQATKNPFYLHVGMDILQSLEKYTKVKCGYATLHHVIDKSKEDRMESFFLSETCKYLYLLFDEENPVHKSGTRYMFTTEGHIISVDKRLRELPWKEFFSEDGERDQEEKFVHRPKSQELRVINSSSNCNRVPDERRYSLPLKSIYMRQIDQMVGLI

Continued, binder first:

Row | Binder | binding [1] | binding [2] | binding [3] | binding [4]
3 | EDEM1 wild type (mouse), HA-tagged (protein, UniProt Q925U4 1-652) MQWRALVLGLVLLRLGLHAVLWLVFGLGPSMGFYQRFPLSFGFQRLRDPDGSGPVGPPGGPAWLHRPRRGTEGRLETPPEPGPTPGPGVCGPAHWGYALGGGGCGPDEYERRYSGAFPPQLRAQMRDLARGMFVFGYDNYMAHAFPQDELNPIYCRGRGPDRGDPSNLNINDVLGNYSLTLVDALDTLAIMGNSSEFQKAVKLVINTVSFDKDSTVQVFEATIRVLGSLLSAHRIITDSKQPFGDMTIEDYDNELLYMAHDLAVRLLPAFENTKTGIPYPRVNLKTGVPPDSNNETCTAGAGSLLVEFGILSRLLGDSTFEWVARRAVKALWNLRSNDTGLLGNVVNIQTGHWVGKQSGLGAGLDSFYEYLLKSYILFGEKEDLEMFNAAYQSIQSYLRRGREACNEGEGDPPLYVNVNMFSGQLMNTWIDSLQAFFPGLQVLIGDVEDAICLHAFYYAIWKRYGALPERYNWQLQAPDVLFYPLRPELVESTYLLYQATKNPFYLHVGMDILQSLEKYTKVKCGYATLHHVIDKSKEDRMESFFLSETCKYLYLLFDEENPVHKSGTRYMFTTEGHIISVDKRLRELPWKEFFSEDGERDQEEKFVHRPKSQELRVINSSSNCNRVPDERRYSLPLKSIYMRQIDQMVGLI |  | binds | binds | binds
4 | EDEM1-AVV (mouse EDEM1 triple mutant D365A/E488V/T574V), HA-tagged (protein, UniProt Q925U4 1-652) MQWRALVLGLVLLRLGLHAVLWLVFGLGPSMGFYQRFPLSFGFQRLRDPDGSGPVGPPGGPAWLHRPRRGTEGRLETPPEPGPTPGPGVCGPAHWGYALGGGGCGPDEYERRYSGAFPPQLRAQMRDLARGMFVFGYDNYMAHAFPQDELNPIYCRGRGPDRGDPSNLNINDVLGNYSLTLVDALDTLAIMGNSSEFQKAVKLVINTVSFDKDSTVQVFEATIRVLGSLLSAHRIITDSKQPFGDMTIEDYDNELLYMAHDLAVRLLPAFENTKTGIPYPRVNLKTGVPPDSNNETCTAGAGSLLVEFGILSRLLGDSTFEWVARRAVKALWNLRSNDTGLLGNVVNIQTGHWVGKQSGLGAGLASFYEYLLKSYILFGEKEDLEMFNAAYQSIQSYLRRGREACNEGEGDPPLYVNVNMFSGQLMNTWIDSLQAFFPGLQVLIGDVEDAICLHAFYYAIWKRYGALPERYNWQLQAPDVLFYPLRPVLVESTYLLYQATKNPFYLHVGMDILQSLEKYTKVKCGYATLHHVIDKSKEDRMESFFLSETCKYLYLLFDEENPVHKSGTRYMFTVEGHIISVDKRLRELPWKEFFSEDGERDQEEKFVHRPKSQELRVINSSSNCNRVPDERRYSLPLKSIYMRQIDQMVGLI |  | binds | binds | binds
